Reference: EP4678750A1 (priority 2023, dated 2024)
For at least one compound, name, drawing or mass did not settle the structure.

Tested on: replicon RNA transcribed from NOBEVR
Assay type: cell-based, Nobecovirus

COc1cc(/C=C/C(O)=C/C(=O)/C=C/c2ccc(O)cc2)ccc1O [demethoxycurcumin]
inhibitory activity against the replication of replicon RNA transcribed from NOBEVR: strong inhibitory activity
